Literature values, collected in patent US20020016293A1 (priority 2000, published 2002).
At least one compound was matched to its structure with a doubt left.

Test system: p-glycoprotein
Details: cited from earlier work

## CC#C[C@]1(O)CC[C@H]2[C@@H]3CCC4=CC(=O)CCC4=C3[C@@H](c3ccc(N(C)C)cc3)C[C@@]21C [RU 486]
  effectiveness in inhibiting p-glycoprotein-dependent drug efflux relative to progesterone: considerably more effective than progesterone
  effectiveness in inhibiting p-glycoprotein-dependent drug efflux relative to verapamil: one-half as effective as verapamil
